Series [1] deals with Estrogen receptor alpha (ERα) (Homo sapiens) (UniProt P03372). Kind of series: binding assay. Conditions: purified recombinant protein, protein details: PanVera.
Series [2] deals with Estrogen receptor beta (ERβ) (Homo sapiens) (UniProt Q92731). In words: binding assay. Particulars: AuNP aggregation assay, purified recombinant protein, protein details: PanVera.
Series [3] deals with Estrogen receptor alpha (ERα) (Homo sapiens) (UniProt P03372). In words: SPR. Conditions: immobilized wtERE on gold chip; no dissociation on switching to 20 or 50 mM KCl; purified recombinant protein; protein details: PanVera.
Series [4] has as its target Bovine serum albumin (BSA) (UniProt P02769). Kind of series: binding assay. Conditions: AuNP aggregation assay; negative control; purified native protein.

Amino acid sequences for entries named in this document (tags omitted). Residues count along the entry.
UniProt P03372, whole entry: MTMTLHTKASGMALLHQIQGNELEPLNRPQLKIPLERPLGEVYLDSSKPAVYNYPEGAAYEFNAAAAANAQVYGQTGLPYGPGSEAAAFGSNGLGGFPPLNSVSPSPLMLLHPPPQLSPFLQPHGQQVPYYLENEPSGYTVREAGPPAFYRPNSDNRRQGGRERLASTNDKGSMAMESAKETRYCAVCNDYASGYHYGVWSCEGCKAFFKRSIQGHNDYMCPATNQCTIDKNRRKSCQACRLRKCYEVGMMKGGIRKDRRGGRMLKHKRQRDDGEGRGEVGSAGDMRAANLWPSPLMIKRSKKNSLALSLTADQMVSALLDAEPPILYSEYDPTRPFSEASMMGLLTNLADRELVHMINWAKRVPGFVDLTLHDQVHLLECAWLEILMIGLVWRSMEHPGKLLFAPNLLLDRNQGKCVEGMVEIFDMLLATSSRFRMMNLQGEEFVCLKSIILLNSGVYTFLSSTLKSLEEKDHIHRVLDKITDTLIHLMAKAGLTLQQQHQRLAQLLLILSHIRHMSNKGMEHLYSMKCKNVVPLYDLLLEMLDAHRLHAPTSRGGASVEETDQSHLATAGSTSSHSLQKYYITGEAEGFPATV
UniProt Q92731, whole entry: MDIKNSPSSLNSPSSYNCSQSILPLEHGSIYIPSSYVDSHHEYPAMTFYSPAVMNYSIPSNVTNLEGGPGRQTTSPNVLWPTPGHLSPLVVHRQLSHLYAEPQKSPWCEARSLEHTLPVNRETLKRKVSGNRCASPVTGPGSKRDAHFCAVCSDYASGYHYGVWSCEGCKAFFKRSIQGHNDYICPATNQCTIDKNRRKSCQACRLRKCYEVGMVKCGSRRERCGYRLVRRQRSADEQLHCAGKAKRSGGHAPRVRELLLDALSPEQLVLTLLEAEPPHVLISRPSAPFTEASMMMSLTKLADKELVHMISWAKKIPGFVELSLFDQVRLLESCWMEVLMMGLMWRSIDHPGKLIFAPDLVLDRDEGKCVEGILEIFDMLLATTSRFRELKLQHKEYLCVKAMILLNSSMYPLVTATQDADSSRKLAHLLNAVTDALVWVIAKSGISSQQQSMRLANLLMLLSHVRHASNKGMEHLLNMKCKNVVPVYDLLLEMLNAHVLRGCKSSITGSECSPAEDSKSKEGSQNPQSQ
UniProt P02769, 25-607: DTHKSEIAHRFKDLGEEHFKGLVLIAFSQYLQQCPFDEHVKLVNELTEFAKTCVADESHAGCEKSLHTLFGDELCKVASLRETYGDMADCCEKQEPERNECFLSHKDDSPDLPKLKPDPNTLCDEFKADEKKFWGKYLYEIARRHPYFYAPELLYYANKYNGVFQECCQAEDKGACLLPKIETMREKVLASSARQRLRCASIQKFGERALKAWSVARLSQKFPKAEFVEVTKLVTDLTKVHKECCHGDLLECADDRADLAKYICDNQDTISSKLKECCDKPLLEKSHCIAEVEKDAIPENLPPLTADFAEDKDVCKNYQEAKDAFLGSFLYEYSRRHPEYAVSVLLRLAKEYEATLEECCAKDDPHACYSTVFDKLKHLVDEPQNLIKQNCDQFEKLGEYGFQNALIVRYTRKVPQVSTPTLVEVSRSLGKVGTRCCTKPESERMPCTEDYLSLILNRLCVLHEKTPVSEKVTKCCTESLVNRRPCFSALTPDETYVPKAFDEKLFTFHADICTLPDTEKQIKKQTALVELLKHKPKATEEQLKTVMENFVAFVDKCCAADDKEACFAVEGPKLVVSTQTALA

Drawing on patent publication US20120156804, this text covers binding result and binding signal (% less stable than wtERE) for four sequences.

For part of these data: The comparison behind a weaker result is the experiment's own reference, which may not be listed here. The exact form of at least one protein or probe is not confirmed. For part of these data: A negative result means that nothing was seen under these conditions. For part of these data: Whether high values mean tight binding is not given here for every scale.

“GTCCAAAGTCAATCGCCAGCACGATGATCAAAGT (double strand) [scrDNA]”: the binding result is “binds more weakly” in series [1] (AuNP aggregation assay, no sequence-dependent binding, weak electrostatic contact, more stable than ERα alone, variant of wtERE) and “binds more weakly” in series [2] (weak nonspecific binding, more stable than ERβ alone, variant of wtERE).

Turning to “GTCCAAAGTCAGGTCACAGTGACCTGATCAAAGT (double strand) [wtERE]”, the binding result in series [3] is recorded as “binds”; in series [4], “no binding”; in series [1] (AuNP colorimetric aggregation assay, 2:1 stoichiometry, 80 mM KCl binding buffer pH 7.4, 20 mM KCl final, highest affinity), “binds”; in series [2] (4:1 stoichiometry, 20 mM KCl final), “binds”.

On to “GTCCAAAGTCAGTTCACAGTGATCTGATCAAAGT (double strand) [mutERE]”, for which the binding result in series [1] (AuNP aggregation assay, order wtERE>mutERE>scrDNA, variant of wtERE) is “binds more weakly”; in series [2] (order wtERE>mutERE>scrDNA, variant of wtERE), “binds more weakly”.

On to “TCCCCCTGCAAGGTCACGGTGGCCACCCCGTGAG (double strand) [pS2 ERE]”, for which the binding signal (% less stable than wtERE) in series [1] (AuNP aggregation assay, A650 difference, 50 mM KCl final) was 19.
